Laboratory results as given in the supplement of paper PMC10849652.
Some of the results follow.

Amino acid sequences for entries named in this document (tags omitted). A change or cut given only in a name is not applied to a line headed by its entry.
UniProt Q00653: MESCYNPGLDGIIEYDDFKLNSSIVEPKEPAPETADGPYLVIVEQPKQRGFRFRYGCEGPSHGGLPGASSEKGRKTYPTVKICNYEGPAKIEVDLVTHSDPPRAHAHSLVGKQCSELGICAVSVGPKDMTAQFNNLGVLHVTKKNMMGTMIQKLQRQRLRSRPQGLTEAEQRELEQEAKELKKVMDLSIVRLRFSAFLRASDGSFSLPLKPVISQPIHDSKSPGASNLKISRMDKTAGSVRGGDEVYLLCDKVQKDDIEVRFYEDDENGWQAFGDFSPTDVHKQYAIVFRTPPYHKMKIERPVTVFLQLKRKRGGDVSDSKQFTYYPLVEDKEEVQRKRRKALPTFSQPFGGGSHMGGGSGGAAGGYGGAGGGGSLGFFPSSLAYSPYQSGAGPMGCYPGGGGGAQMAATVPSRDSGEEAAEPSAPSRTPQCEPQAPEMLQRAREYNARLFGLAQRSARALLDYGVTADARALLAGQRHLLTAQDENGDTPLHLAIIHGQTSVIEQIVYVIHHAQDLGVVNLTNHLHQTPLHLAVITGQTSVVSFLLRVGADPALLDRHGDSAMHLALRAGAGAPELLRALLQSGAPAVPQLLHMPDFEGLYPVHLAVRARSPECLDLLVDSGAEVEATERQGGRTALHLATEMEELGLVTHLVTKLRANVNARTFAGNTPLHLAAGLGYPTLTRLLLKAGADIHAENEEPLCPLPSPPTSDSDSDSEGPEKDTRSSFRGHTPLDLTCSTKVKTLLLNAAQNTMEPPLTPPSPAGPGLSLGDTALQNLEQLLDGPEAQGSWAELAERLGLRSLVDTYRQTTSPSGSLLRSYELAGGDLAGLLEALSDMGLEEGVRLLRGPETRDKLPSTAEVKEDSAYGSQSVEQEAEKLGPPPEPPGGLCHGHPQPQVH
UniProt P13056: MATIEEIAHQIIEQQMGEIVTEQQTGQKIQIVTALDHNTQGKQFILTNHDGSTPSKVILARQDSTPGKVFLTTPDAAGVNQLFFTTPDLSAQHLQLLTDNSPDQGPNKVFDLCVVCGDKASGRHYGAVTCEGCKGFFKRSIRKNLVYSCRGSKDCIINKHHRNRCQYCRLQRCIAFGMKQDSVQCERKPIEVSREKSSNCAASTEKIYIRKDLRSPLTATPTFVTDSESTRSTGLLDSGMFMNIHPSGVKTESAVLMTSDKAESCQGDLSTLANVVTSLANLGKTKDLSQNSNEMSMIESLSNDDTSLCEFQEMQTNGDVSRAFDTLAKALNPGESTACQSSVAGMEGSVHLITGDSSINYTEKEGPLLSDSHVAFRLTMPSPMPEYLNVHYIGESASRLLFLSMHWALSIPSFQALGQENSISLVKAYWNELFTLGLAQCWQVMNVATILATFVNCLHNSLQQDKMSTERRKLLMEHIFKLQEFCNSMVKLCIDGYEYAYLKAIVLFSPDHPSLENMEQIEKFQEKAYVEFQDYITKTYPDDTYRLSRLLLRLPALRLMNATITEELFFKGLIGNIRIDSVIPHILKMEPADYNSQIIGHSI
UniProt Q86YC3: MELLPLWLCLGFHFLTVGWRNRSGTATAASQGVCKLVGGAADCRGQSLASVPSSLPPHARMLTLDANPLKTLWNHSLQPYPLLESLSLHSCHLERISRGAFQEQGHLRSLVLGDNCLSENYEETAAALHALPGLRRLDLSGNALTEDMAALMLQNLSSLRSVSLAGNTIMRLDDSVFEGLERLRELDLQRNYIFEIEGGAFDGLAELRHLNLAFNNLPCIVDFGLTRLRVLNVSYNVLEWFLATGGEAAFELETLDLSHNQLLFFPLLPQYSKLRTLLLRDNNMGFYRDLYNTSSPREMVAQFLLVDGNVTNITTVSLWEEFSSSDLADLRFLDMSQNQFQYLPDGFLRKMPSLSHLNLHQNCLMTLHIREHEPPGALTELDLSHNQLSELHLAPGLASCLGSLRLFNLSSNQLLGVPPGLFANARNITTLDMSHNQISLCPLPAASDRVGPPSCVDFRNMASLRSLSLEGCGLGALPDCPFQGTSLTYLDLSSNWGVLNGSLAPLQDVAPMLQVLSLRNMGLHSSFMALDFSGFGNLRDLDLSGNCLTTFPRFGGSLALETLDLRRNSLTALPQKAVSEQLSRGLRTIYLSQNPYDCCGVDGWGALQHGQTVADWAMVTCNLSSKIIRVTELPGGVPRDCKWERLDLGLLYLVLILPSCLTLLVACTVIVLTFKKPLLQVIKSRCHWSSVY
UniProt O75052: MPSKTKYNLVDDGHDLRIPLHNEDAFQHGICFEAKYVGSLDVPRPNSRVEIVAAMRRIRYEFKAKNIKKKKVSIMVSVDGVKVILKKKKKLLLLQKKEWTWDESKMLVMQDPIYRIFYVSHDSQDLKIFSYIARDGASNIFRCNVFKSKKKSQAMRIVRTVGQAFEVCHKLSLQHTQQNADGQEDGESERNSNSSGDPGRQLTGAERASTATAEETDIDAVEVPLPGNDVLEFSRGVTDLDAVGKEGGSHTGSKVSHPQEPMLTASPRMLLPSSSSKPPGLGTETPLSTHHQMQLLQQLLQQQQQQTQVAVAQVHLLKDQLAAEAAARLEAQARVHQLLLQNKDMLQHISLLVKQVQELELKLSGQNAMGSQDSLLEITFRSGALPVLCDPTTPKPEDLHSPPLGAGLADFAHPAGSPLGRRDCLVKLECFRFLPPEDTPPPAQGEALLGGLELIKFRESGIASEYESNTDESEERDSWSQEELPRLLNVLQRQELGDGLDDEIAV
UniProt P04150: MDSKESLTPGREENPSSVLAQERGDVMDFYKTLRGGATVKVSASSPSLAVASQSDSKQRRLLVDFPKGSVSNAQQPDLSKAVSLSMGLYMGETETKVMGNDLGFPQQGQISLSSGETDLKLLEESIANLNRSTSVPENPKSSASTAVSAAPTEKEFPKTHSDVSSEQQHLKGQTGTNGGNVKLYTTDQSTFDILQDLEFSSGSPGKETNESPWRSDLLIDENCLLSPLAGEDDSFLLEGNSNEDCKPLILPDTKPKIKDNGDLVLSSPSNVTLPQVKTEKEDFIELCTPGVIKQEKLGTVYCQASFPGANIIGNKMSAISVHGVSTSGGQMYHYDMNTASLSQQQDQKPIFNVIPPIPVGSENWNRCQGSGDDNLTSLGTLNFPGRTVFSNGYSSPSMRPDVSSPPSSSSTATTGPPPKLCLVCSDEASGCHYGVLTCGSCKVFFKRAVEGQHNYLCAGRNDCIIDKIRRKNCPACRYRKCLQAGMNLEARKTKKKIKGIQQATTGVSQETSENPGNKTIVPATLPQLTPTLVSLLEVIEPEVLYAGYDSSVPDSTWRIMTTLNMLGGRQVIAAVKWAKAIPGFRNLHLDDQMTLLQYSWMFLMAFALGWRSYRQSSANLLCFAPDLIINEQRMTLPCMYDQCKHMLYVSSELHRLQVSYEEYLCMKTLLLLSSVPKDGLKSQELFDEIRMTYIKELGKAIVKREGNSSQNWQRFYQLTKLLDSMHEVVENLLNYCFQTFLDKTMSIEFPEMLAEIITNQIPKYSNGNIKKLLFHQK
UniProt Q76FK4: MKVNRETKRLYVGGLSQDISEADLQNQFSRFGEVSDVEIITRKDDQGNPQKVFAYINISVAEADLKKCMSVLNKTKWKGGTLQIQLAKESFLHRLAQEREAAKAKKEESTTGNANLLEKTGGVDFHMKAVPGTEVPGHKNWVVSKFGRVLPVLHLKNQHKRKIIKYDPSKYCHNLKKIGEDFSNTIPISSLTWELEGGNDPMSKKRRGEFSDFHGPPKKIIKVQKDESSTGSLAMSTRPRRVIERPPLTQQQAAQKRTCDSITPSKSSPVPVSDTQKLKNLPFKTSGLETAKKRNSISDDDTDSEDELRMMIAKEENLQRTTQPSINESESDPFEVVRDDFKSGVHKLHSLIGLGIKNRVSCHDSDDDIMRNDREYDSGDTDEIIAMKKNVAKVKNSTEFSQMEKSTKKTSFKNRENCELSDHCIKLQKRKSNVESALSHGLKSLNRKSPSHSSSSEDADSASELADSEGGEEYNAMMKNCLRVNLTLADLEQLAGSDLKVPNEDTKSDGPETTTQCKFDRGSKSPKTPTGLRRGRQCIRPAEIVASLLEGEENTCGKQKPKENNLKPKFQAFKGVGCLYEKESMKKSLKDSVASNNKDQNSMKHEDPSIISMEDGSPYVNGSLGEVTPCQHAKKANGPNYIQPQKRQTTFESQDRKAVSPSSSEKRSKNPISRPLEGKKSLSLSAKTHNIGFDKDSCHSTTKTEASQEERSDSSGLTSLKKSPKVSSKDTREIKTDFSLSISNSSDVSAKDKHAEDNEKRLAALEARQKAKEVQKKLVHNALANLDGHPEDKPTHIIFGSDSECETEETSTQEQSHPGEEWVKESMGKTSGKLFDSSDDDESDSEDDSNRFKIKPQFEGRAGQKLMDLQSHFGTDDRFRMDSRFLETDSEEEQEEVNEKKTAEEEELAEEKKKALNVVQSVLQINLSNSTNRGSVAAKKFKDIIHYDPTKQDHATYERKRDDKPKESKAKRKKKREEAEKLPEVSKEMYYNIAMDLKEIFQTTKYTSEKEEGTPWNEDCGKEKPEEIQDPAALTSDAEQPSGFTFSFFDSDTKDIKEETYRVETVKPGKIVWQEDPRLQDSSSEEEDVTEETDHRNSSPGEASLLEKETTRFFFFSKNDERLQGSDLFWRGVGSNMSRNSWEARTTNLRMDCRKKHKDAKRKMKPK
UniProt Q9NQ35: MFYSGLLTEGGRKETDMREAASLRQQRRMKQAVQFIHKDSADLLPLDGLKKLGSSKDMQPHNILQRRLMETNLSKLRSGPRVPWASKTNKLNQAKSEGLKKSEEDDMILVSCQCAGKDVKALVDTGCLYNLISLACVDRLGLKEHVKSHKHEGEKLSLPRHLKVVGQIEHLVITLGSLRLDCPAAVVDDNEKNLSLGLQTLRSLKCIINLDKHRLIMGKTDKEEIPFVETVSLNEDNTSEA
UniProt O95644: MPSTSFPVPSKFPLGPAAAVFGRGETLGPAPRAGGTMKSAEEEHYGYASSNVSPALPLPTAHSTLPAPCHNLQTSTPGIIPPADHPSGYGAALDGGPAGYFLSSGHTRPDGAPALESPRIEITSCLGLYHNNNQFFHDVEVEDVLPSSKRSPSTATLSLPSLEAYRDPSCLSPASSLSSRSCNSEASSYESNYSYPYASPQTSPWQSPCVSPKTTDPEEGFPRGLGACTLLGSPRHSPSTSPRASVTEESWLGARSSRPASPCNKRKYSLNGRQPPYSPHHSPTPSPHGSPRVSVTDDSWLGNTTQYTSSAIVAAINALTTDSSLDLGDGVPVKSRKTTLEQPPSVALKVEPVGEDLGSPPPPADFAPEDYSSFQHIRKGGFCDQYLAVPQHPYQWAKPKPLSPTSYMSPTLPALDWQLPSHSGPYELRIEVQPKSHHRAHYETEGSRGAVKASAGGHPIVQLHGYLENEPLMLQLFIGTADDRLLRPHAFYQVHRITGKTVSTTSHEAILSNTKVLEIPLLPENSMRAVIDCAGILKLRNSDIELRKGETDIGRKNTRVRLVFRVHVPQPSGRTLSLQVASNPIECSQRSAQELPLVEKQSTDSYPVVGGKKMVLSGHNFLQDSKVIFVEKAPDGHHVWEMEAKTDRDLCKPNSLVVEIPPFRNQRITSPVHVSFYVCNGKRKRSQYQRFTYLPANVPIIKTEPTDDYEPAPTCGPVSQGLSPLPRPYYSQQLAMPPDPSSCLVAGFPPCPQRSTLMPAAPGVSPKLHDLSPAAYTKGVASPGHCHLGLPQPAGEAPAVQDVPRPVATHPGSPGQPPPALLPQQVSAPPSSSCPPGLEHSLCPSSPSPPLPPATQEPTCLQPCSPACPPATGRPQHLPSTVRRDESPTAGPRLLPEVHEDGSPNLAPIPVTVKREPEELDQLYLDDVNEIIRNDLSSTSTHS
UniProt Q96T66: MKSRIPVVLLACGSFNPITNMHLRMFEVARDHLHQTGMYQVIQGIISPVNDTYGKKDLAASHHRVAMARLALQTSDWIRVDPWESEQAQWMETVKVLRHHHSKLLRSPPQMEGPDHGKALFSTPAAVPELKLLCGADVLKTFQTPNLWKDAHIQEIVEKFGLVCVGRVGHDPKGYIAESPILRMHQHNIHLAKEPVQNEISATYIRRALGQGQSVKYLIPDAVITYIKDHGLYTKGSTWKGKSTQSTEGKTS
UniProt P25963: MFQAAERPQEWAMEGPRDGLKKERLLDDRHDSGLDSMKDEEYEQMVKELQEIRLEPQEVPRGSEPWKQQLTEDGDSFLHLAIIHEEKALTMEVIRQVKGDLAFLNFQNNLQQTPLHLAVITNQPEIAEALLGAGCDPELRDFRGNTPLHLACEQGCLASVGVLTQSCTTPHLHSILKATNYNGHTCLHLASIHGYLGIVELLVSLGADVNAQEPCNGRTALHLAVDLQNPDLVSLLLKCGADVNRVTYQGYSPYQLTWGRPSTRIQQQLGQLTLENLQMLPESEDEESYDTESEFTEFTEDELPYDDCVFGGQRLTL
UniProt Q9NYR9: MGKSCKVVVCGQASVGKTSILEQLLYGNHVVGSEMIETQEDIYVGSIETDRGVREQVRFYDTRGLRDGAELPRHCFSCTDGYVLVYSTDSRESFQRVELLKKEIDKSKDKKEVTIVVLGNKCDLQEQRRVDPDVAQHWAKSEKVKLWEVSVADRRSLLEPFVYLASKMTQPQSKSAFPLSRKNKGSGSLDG

Experiments:
Test in all cases: log2 fold change, soluble protein after heating vs DMSO (PISA); higher = thermal stabilisation; K562 cells, 10 uM, 30 min; active = over 0.2 and 3.5 SD of the protein, either way, in both replicates (recomputed)
[1] = compound: COC1=CC=C(C=C1)CN2C=CC3=C2C=C(C=C3)C(=O)NO
In short: (§1)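 Thermal stability values are relative to control samples and come from duplicates. They are expressed as log2 fold changes. For measurement, K562 cells (2×10^6 cells/mL) received 10 μM compound for 30 min, and aliquots were heated for 3 min over 48°C-58°C, pooled, and extracted at 4°C in PBS with 0.5% NP-40. Soluble protein, the supernatant after 21,000xg for 90 min, was quantified by TMTpro 16plex LC-MS/MS with equalised channel sums.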

zotarolimus = compound: CO[C@H]1C[C@@H]2CC[C@@H](C)[C@@](O)(O2)C(=O)C(=O)N2CCCC[C@H]2C(=O)O[C@H]([C@H](C)C[C@@H]2CC[C@H](n3cnnn3)[C@H](OC)C2)CC(=O)[C@H](C)/C=C(\C)[C@@H](O)[C@@H](OC)C(=O)[C@H](C)C[C@H](C)/C=C/C=C/C=C/1C [zotarolimus]
In short: as §1

idasanutlin = compound: COc1cc(C(=O)O)ccc1NC(=O)[C@@H]1N[C@@H](CC(C)(C)C)[C@](C#N)(c2ccc(Cl)cc2F)[C@H]1c1cccc(Cl)c1F [idasanutlin]
In short: as §1

alisertib = compound: COc1cc(Nc2ncc3c(n2)-c2ccc(Cl)cc2C(c2c(F)cccc2OC)=NC3)ccc1C(=O)O [alisertib]
In short: as §1

[2] = compound: COc1cc2nc(-c3cc(F)ccc3O)nc(N[C@@H]3CNC[C@H]3C(C)(C)O)c2cc1OC
In short: as §1

gefitinib = compound: COc1cc2ncnc(Nc3ccc(F)c(Cl)c3)c2cc1OCCCN1CCOCC1 [gefitinib]
In short: as §1

[3] = compound: COc1cccc2cc(-c3nc([C@H]4CC[C@H](C(=O)O)CC4)n4ncnc(N)c34)[nH]c12
In short: as §1

lapatinib = compound: CS(=O)(=O)CCNCc1ccc(-c2ccc3ncnc(Nc4ccc(OCc5cccc(F)c5)c(Cl)c4)c3c2)o1 [lapatinib]
In short: as §1

filanesib = compound: CON(C)C(=O)N1N=C(c2cc(F)ccc2F)S[C@@]1(CCCN)c1ccccc1 [filanesib]
In short: as §1

pictilisib = compound: CS(=O)(=O)N1CCN(Cc2cc3nc(-c4cccc5[nH]ncc45)nc(N4CCOCC4)c3s2)CC1 [pictilisib]
In short: as §1

Measured: log2 fold change

NFKB2 (UniProt Q00653)
inactive: [1] -0.074 | zotarolimus -0.01 | idasanutlin 0.015 | alisertib -0.118 | [2] 0.023 | gefitinib 0 | [3] -0.024 | lapatinib 0.01

NR2C1 (UniProt P13056)
inactive: [1] 0.413 | filanesib 0.081 | idasanutlin 0.057 | alisertib 0.01 | gefitinib 0.03 | [3] 0.058

NSD1 (UniProt Q96L73)
inactive: [1] -0.127 | filanesib 0.021 | idasanutlin 0.129 | alisertib -0.084 | gefitinib -0.025 | [3] 0.002 | pictilisib -0.07

NRROS (UniProt Q86YC3)
inactive: [2] 0.091 | gefitinib -0.001 | lapatinib -0.024 | pictilisib 0.085

NOS1AP (UniProt O75052)
inactive: zotarolimus -0.098 | alisertib 0.353 | [2] -0.09 | [3] -0.118 | lapatinib -0.1

Two neighbouring entries from above, quoted:
NFKB2 (UniProt Q00653)
inactive: [1] -0.074 | zotarolimus -0.01 | idasanutlin 0.015 | alisertib -0.118 | [2] 0.023 | gefitinib 0 | [3] -0.024 | lapatinib 0.01

NR2C1 (UniProt P13056)
inactive: [1] 0.413 | filanesib 0.081 | idasanutlin 0.057 | alisertib 0.01 | gefitinib 0.03 | [3] 0.058

(list continues)

NR3C1 isoform 3 (UniProt P04150)
inactive: [1] -0.123 | zotarolimus -0.032 | idasanutlin -0.008 | alisertib 0.078 | [2] -0.016 | gefitinib 0.04 | [3] 0.085

NOL8 (UniProt Q76FK4)
inactive: [2] -0.031 | lapatinib -0.059 | pictilisib 0.158

NGDN (UniProt Q8NEJ9)
inactive: filanesib -0.302 | zotarolimus 0.044

NGRN (UniProt Q9NPE2)
inactive: filanesib 0.079 | zotarolimus -0.102 | idasanutlin 0.045 | alisertib 0.012 | [2] 0.082 | gefitinib 0.028 | [3] -0.006 | lapatinib 0.059 | pictilisib 0.101

NELFCD (UniProt Q8IXH7)
inactive: [1] 0.006 | zotarolimus -0.071 | idasanutlin 0 | [2] 0.179 | gefitinib -0.052 | lapatinib -0.006 | pictilisib -0.061

NRIP3 (UniProt Q9NQ35)
inactive: filanesib -0.233 | idasanutlin 0.089

NIPBL (UniProt Q6KC79)
inactive: [1] 0.069 | idasanutlin 0.069 | [2] -0.056 | lapatinib 0.027

NOTCH1 (UniProt P46531)
inactive: gefitinib 0.063

NOLC1 isoform 3 (UniProt Q14978)
inactive: zotarolimus -0.013

NFATC1 (UniProt O95644)
inactive: filanesib -0.109 | alisertib -0.008 | [2] -0.019 | [3] 0.127 | lapatinib -0.037

NRSN2 (UniProt Q9GZP1)
inactive: filanesib -0.126

NRGN (UniProt Q92686)
inactive: [1] -0.831 | idasanutlin 0.023 | [2] -0.108 | gefitinib -0.012 | lapatinib 0.107 | pictilisib 0.404

NEU3 isoform 2 (UniProt Q9UQ49)
inactive: filanesib -0.286 | [2] 0.301 | lapatinib -0.126

NEURL4 (UniProt Q96JN8)
inactive: filanesib 0.088 | zotarolimus -0.005 | idasanutlin -0.028

NRM (UniProt Q8IXM6)
inactive: filanesib 0.081 | zotarolimus -0.052 | idasanutlin -0.039 | alisertib 0.012 | [2] -0.229 | gefitinib 0.039 | [3] 0.081 | lapatinib -0.03 | pictilisib 0.113

NMU (UniProt P48645)
inactive: [1] 0.259 | zotarolimus -0.018 | idasanutlin 0.057 | [2] -0.156 | gefitinib 0.162 | lapatinib -0.047 | pictilisib -0.3

NOD1 (UniProt Q9Y239)
inactive: [1] 0.154 | filanesib 0.048 | zotarolimus -0.038 | [2] 0.273 | lapatinib -0.097 | pictilisib 0.174

NOSTRIN isoform 4 (UniProt Q8IVI9)
inactive: filanesib 0.309 | idasanutlin -0.005 | alisertib -0.183 | gefitinib 0.08 | [3] -0.272

NLRX1 (UniProt Q86UT6)
inactive: [1] -0.206 | filanesib 0.141 | [2] -0.161 | gefitinib -0.049 | lapatinib 0.003

NIPSNAP2 (UniProt C9J7B1)
inactive: filanesib 0.05 | idasanutlin -0.38 | alisertib -0.041 | [3] -0.047

NKAP (UniProt Q8N5F7)
inactive: [1] -0.005 | zotarolimus 0.112 | idasanutlin 0.115 | alisertib 0.037 | [2] -0.051 | gefitinib -0.029 | [3] -0.13 | lapatinib 0.09 | pictilisib -0.013

NOC3L (UniProt Q8WTT2)
inactive: idasanutlin 0.011 | alisertib 0.226 | gefitinib 0.027 | [3] 0.414 | pictilisib 0.192

NKTR (UniProt P30414)
inactive: alisertib 0.064 | [2] 0.295 | [3] 0.109 | lapatinib -0.173

NMNAT3 (UniProt Q96T66)
inactive: filanesib -0.211 | alisertib 0.443 | [2] 0.054 | [3] -0.197 | lapatinib -0.023

NFKBIA (UniProt P25963)
inactive: filanesib -0.011 | pictilisib -0.024

NKIRAS2 (UniProt Q9NYR9)
inactive: [1] 0.009 | filanesib 0.124 | alisertib -0.077 | gefitinib 0.043 | [3] -0.007

NSA2 (UniProt O95478)
inactive: pictilisib -0.216

NOP10 (UniProt Q9NPE3)
inactive: [1] 0.122 | zotarolimus 0.023 | alisertib 0.119 | [2] -0.005 | gefitinib -0.045 | [3] 0.13 | lapatinib 0.033

NFE2L1 (UniProt Q14494)
inactive: [1] 0.271 | zotarolimus -0.341 | [2] 0.051 | lapatinib 0.025 | pictilisib 0.176
